Results as given in ChEMBL document CHEMBL1153083, “Antiprotozoal, anticancer and antimicrobial activities of dihydroartemisinin acetal dimers and monomers” (Bioorg Med Chem, 2009).

Test system: SK-OV-3
Assay: Cytotoxicity against human SKOV3 cells after 48 hrs by neutral red assay
Format: functional, cell-based
Conditions: SK-OV-3, 48 h
Procedure, shortened: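 Cells seeded at 25,000 per well and incubated 24 h, then exposed to samples for 48 h. Viable cells were counted by neutral red, with DMSO as vehicle control. IC50 or TC50 values were derived from logarithmic plots of growth inhibition versus concentration.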

With `CC(=O)O[C@H]1C(=O)[C@@]2(C)[C@H]([C@H](OC(=O)c3ccccc3)[C@]3(O)C[C@H](OC(=O)[C@H](O)[C@@H](NC(=O)c4ccccc4)c4ccccc4)C(C)=C1C3(C)C)[C@]1(OC(C)=O)CO[C@@H]1C[C@@H]2O` [PACLITAXEL] the IC50 was 0.53 µM.
